Drawing on article PMC9070665, this text covers binding for six molecules.

Sequences of proteins named here, by UniProt entry; tags and fusion partners are left off.
UniProt Q96S21: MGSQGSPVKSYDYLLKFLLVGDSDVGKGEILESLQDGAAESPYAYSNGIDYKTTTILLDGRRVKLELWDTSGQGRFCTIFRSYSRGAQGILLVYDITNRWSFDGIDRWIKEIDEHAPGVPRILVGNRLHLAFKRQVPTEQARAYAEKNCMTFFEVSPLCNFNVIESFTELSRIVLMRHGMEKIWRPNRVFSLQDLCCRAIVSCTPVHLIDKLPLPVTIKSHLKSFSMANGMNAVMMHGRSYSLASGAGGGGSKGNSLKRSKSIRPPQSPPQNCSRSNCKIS
UniProt Q93034: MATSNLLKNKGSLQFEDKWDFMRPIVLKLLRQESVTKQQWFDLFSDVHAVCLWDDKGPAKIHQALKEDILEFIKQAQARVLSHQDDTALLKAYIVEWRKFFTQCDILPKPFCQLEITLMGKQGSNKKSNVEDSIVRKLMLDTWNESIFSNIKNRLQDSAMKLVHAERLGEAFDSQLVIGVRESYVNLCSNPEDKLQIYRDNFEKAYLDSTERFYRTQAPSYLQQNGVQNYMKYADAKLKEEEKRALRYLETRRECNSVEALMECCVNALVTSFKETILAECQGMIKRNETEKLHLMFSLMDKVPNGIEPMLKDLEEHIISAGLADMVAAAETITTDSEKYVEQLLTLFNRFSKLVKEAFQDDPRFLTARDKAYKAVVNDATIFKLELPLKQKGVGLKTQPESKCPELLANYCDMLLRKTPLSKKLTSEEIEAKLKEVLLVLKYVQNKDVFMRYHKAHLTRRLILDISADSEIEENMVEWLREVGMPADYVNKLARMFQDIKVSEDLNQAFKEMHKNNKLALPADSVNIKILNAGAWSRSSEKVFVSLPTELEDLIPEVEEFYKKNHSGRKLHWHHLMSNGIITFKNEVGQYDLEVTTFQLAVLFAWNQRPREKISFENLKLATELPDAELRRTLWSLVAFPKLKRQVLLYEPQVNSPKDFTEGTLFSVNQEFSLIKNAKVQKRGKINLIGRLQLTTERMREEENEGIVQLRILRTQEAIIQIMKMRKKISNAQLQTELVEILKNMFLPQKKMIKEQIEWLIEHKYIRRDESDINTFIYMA

No constants are given. Whether binding was seen depends on the method and setting. In cells and extracts the contact can be indirect. Some entries that bind do so weakly or less than the wild type.

The target of test [1] is FLAG-Rab40c (human) (UniProt Q96S21). Nature of the test: co-IP; anti-FLAG IP from lysates of MDA-MB-231 cells stably expressing or transfected with FLAG-Rab40c or FLAG-Rab40c-4A, blots for endogenous proteins; lysis buffer 20 mM Tris-HCl pH 7.6, 150 mM NaCl, 2 mM EDTA, 1% Triton X-100, 10% glycerol; 4°C; washes with lysis buffer plus 0.5 M NaCl.
Test [2] has the same target. Nature of the test: co-IP; lysates (PBS, 1% Triton X-100) of MDA-MB-231 cells expressing FLAG-Rab40c, 1 mM EDTA 1 min 37°C, then 5 mM MgCl2 with 1 mM GDP or 1 mM GTPγS 10 min 37°C; anti-FLAG IP, blot for ANKRD28.
Test [3] has the same target. As to the kind of experiment: co-IP; anti-FLAG IP from lysates of MDA-MB-231 cells stably expressing or transfected with FLAG-Rab40c or FLAG-Rab40c-4A, blots for endogenous proteins; lysis buffer 20 mM Tris-HCl pH 7.6, 150 mM NaCl, 2 mM EDTA, 1% Triton X-100, 10% glycerol; 4°C; washes with lysis buffer plus 0.5 M NaCl. The source holds these as a separate data set.
Test [4] addresses FLAG-Rab40c (in 293T cells) (human) (UniProt Q96S21). As to the kind of experiment: co-IP; 293T cells co-transfected with FLAG-Rab40c and scrambled siRNA or siRNAs against ANKRD28, ANKRD52, PP6R1 (alone, or ANKRD28 with ANKRD52); anti-FLAG IP, blots for endogenous ANKRD28, ANKRD52, PP6R1.
Test [5] concerns the target endogenous Rab40c (human (endogenous in MDA-MB-231)) (UniProt Q96S21). As to the kind of experiment: co-IP; anti-Rab40c IP of endogenous Rab40c from MDA-MB-231 lysates; blots with anti-panANKRD, anti-PP6R1, anti-PP6R2, anti-PP6R3.

Turning to Cullin5 (from UniProt Q93034 1-780), the binding result with FLAG-Rab40c (human) [1] is given as “binds”.

B1: ankyrin repeat domain 28 (ANKRD28) (protein, UniProt O15084 1-1053)
chain: MAFLKLRDQPSLVQAIFNGDPDEVRALIFKKEDVNFQDNEKRTPLHAAAYLGDAEIIELLILSGARVNAKDSKWLTPLHRAVASCSEEAVQVLLKHSADVNARDKNWQTPLHIAAANKAVKCAEALVPLLSNVNVSDRAGRTALHHAAFSGHGEMVKLLLSRGANINAFDKKDRRAIHWAAYMGHIEVVKLLVSHGAEVTCKDKKSYTPLHAAASSGMISVVKYLLDLGVDMNEPNAYGNTPLHVACYNGQDVVVNELIDCGAIVNQKNEKGFTPLHFAAASTHGALCLELLVGNGADVNMKSKDGKTPLHMTALHGRFSRSQTIIQSGAVIDCEDKNGNTPLHIAARYGHELLINTLITSGADTAKRGIHGMFPLHLAALSGFSDCCRKLLSSGFDIDTPDDFGRTCLHAAAAGGNLECLNLLLNTGADFNKKDKFGRSPLHYAAANCNYQCLFALVGSGASVNDLDERGCTPLHYAATSDTDGKCLEYLLRNDANPGIRDKQGYNAVHYSAAYGHRLCLQLIASETPLDVLMETSGTDMLSDSDNRATISPLHLAAYHGHHQALEVLVQSLLDLDVRNSSGRTPLDLAAFKGHVECVDVLINQGASILVKDYILKRTPIHAAATNGHSECLRLLIGNAEPQNAVDIQDGNGQTPLMLSVLNGHTDCVYSLLNKGANVDAKDKWGRTALHRGAVTGHEECVDALLQHGAKCLLRDSRGRTPIHLSAACGHIGVLGALLQSAASMDANPATADNHGYTALHWACYNGHETCVELLLEQEVFQKTEGNAFSPLHCAVINDNEGAAEMLIDTLGASIVNATDSKGRTPLHAAAFTDHVECLQLLLSHNAQVNSVDSTGKTPLMMAAENGQTNTVEMLVSSASAELTLQDNSKNTALHLACSKGHETSALLILEKITDRNLINATNAALQTPLHVAARNGLTMVVQELLGKGASVLAVDENGYTPALACAPNKDVADCLALILATMMPVSSSSPLSSLTFNAINRYTNTSKTVSFEALPIMRNEPSSYCSFNNIGGEQEYLYTDVDELNDSDSETY
With B1, the binding result with FLAG-Rab40c (human) [2] and with FLAG-Rab40c (human) [3] was “binds” in each case.

B2: ANKRD28 (endogenous in 293T cells) (protein, UniProt O15084 1-1053)
chain: B1 chain
With B2, the binding entry in test [4] is reported as “binds”.

B3: ANKRD52 (endogenous in 293T cells) (protein, UniProt Q8NB46 1-1076)
chain: MGILSITDQPPLVQAIFSRDVEEVRSLLSQKENINVLDQERRTPLHAAAYVGDVPILQLLLMSGANVNAKDTLWLTPLHRAAASRNEKVLGLLLAHSADVNARDKLWQTPLHVAAANRATKCAEALAPLLSSLNVADRSGRSALHHAVHSGHLETVNLLLNKGASLNVCDKKERQPLHWAAFLGHLEVLKLLVARGADLGCKDRKGYGLLHTAAASGQIEVVKYLLRMGAEIDEPNAFGNTALHIACYLGQDAVAIELVNAGANVNQPNDKGFTPLHVAAVSTNGALCLELLVNNGADVNYQSKEGKSPLHMAAIHGRFTRSQILIQNGSEIDCADKFGNTPLHVAARYGHELLISTLMTNGADTARRGIHDMFPLHLAVLFGFSDCCRKLLSSGQLYSIVSSLSNEHVLSAGFDINTPDNLGRTCLHAAASGGNVECLNLLLSSGADLRRRDKFGRTPLHYAAANGSYQCAVTLVTAGAGVNEADCKGCSPLHYAAASDTYRRAEPHTPSSHDAEEDEPLKESRRKEAFFCLEFLLDNGADPSLRDRQGYTAVHYAAAYGNRQNLELLLEMSFNCLEDVESTIPVSPLHLAAYNGHCEALKTLAETLVNLDVRDHKGRTALFLATERGSTECVEVLTAHGASALIKERKRKWTPLHAAAASGHTDSLHLLIDSGERADITDVMDAYGQTPLMLAIMNGHVDCVHLLLEKGSTADAADLRGRTALHRGAVTGCEDCLAALLDHDAFVLCRDFKGRTPIHLASACGHTAVLRTLLQAALSTDPLDAGVDYSGYSPMHWASYTGHEDCLELLLEHSPFSYLEGNPFTPLHCAVINNQDSTTEMLLGALGAKIVNSRDAKGRTPLHAAAFADNVSGLRMLLQHQAEVNATDHTGRTALMTAAENGQTAAVEFLLYRGKADLTVLDENKNTALHLACSKGHEKCALMILAETQDLGLINATNSALQMPLHIAARNGLASVVQALLSHGATVLAVDEEGHTPALACAPNKDVADCLALILSTMKPFPPKDAVSPFSFSLLKNCSIAAAKTVGGCGALPHGASCPYSQERPGAIGLDGCYSE
Consider B3, for which the binding entry in test [4] is given as “binds”.

B4: PP6R1 (protein, UniProt Q9UPN7 1-881)
chain: MFWKFDLHTSSHLDTLLEREDLSLPELLDEEDVLQECKVVNRKLLDFLLQPPHLQAMVAWVTQEPPDSGEERLRYKYPSVACEILTSDVPQINDALGADESLLNRLYGFLQSTGSLNPLLASFFSKVMGILINRKTDQLVSFLRKKDDFVDLLLQHIGTSAIMDLLLRLLTCVERPQLRQDVVNWLNEEKIVQRLIEQIHPSKDENQHSNASQSLCDIIRLSREQMIQVQDSPEPDQLLATLEKQETIEQLLSNMFEGEQSQSVIVSGIQVLLTLLEPRRPRSESVTVNSFFSSVDGQLELLAQGALESTVSSVGALHALRPRLSCFHQLLLEPPKLEPLQMTWGMLAPPLGNTRLHVVKLLASALSANDAALTHELLALDVPNTMLDLFFHYVFNNFLHAQVEGCVSTMLSLGPPPDSSPETPIQNPVVKHLLQQCRLVERILTSWEENDRVQCAGGPRKGYMGHLTRVAGALVQNTEKGPNAEQLRQLLKELPSEQQEQWEAFVSGPLAETNKKNMVDLVNTHHLHSSSDDEDDRLKEFNFPEEAVLQQAFMDFQMQRMTSAFIDHFGFNDEEFGEQEESVNAPFDKTANITFSLNADDENPNANLLEICYKDRIQQFDDDEEEEDEEEAQGSGESDGEDGAWQGSQLARGARLGQPPGVRSGGSTDSEDEEEEDEEEEEDEEGIGCAARGGATPLSYPSPGPQPPGPSWTATFDPVPTDAPTSPRVSGEEELHTGPPAPQGPLSVPQGLPTQSLASPPARDALQLRSQDPTPPSAPQEATEGSKVTEPSAPCQALVSIGDLQATFHGIRSAPSSSDSATRDPSTSVPASGAHQPPQTTEGEKSPEPLGLPQSQSAQALTPPPIPNGSAPEGPASPGSQ
For the molecule B4, the binding entry (in test [5]; in the test with FLAG-Rab40c (human) [3]) was “binds” throughout.

B5: PP6R1 (endogenous in 293T cells) (protein, UniProt Q9UPN7 1-881)
chain: B4 chain
For the molecule B5, the binding result in test [4] is reported as “binds”.
